Measured values: publication PMC12748767
No constants are given. Whether binding was seen depends on the method and setting. In cells and extracts the contact can be indirect. These calls come from enrichment with a bait or labelling near it, and not all partners need be listed.

Amino acid sequences for entries named in this document (tags omitted).
UniProt P60174: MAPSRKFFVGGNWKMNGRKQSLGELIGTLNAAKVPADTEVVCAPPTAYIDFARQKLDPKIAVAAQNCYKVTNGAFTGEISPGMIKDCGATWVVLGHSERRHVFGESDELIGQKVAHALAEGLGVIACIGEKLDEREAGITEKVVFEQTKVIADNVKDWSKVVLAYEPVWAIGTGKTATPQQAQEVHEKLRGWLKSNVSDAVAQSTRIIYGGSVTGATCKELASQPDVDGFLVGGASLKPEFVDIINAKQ

Target: Triosephosphate isomerase 1 (TPI1) (human (endogenous in J82 and UMUC3)) (UniProt P60174)
Assay: affinity purification with mass spectrometry; immunoprecipitation of TPI1 from cell lysate (IP Lysis Buffer, antibody or control IgG overnight at 4 °C, protein A/G magnetic beads), MS detection; cells not given

- binding: binds
Substance: Beclin-1 (from UniProt Q14457 1-450)
